According to article PMC8566228:
No constants are given. Whether binding was seen depends on the method and setting. Binding seen in cells or lysates may run through a third protein. Some results given as binding are weak or reduced against the parent protein; the word gives no strength.

Amino acid sequences for entries named in this document (tags omitted).
UniProt A0A0G2K2P5: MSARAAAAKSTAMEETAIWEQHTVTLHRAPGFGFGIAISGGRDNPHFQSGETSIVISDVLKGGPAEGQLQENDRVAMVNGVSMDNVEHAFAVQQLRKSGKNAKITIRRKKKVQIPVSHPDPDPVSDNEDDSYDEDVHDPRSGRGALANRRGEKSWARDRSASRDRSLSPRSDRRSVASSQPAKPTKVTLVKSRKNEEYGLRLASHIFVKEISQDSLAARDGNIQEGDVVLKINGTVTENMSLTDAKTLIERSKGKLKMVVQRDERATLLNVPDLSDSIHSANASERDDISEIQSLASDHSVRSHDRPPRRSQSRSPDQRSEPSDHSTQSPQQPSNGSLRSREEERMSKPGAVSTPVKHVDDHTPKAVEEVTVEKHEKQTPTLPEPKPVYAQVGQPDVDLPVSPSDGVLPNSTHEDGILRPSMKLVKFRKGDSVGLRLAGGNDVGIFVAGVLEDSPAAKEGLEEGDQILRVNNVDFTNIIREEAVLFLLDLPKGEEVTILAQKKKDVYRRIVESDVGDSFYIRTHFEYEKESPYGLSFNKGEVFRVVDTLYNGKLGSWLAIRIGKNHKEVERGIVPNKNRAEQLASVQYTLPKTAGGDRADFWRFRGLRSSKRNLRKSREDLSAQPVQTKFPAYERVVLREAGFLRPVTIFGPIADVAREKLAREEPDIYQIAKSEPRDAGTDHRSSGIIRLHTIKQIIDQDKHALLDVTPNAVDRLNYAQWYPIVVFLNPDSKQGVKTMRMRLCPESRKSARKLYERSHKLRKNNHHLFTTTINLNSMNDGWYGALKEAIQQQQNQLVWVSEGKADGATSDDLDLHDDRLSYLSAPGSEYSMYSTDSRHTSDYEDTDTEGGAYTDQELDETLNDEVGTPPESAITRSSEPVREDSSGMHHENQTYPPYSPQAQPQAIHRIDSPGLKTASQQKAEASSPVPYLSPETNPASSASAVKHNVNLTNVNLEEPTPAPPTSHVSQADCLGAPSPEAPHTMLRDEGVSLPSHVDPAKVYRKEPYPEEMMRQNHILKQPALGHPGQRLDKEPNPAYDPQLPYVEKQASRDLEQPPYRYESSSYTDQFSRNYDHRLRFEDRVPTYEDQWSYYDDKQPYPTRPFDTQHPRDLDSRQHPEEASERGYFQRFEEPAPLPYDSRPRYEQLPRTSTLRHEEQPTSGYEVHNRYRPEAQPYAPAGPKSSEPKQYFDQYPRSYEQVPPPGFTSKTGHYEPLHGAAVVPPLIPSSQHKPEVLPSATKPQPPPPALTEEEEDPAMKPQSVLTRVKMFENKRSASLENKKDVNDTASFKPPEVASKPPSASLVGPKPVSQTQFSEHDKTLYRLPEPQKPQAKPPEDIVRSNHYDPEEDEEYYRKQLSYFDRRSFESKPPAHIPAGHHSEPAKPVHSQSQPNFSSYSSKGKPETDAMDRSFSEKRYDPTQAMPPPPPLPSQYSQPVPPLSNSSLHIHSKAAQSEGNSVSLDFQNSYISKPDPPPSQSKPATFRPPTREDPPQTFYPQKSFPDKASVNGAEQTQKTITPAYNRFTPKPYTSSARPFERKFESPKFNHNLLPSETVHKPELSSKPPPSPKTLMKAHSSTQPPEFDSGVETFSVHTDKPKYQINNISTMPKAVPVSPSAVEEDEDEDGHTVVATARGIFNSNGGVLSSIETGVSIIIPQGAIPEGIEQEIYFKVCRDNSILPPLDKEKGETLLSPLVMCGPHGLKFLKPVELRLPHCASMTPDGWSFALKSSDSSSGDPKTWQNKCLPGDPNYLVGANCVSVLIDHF

Target: T1, heat-shock protein APG2 (rat (endogenous in IEC-6)) (UniProt O88600)
T1 sequence: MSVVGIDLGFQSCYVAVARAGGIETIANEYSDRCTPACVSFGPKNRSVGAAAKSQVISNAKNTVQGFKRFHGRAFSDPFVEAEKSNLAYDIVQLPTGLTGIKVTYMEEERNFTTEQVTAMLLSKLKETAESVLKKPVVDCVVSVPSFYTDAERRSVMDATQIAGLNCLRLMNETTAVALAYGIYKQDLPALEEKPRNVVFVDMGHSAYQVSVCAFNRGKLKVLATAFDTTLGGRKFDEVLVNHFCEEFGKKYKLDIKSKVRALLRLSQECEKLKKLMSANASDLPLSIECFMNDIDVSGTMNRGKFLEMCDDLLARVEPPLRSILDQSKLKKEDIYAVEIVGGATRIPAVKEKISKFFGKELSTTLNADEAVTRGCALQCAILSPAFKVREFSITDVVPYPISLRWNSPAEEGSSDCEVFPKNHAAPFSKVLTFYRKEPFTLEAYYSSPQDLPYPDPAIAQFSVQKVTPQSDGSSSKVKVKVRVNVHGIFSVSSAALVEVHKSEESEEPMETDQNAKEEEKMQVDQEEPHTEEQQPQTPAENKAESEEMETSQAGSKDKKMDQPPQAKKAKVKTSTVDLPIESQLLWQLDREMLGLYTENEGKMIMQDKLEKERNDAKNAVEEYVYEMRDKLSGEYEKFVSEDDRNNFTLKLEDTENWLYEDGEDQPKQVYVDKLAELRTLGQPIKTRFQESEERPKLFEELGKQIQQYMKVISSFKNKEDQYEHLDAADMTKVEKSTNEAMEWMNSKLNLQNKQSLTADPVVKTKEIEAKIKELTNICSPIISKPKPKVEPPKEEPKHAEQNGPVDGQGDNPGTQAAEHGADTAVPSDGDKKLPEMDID
Assay: co-IP; IEC-6 lysate (1% NP40, 20 mM Tris, 150 mM NaCl, 2 mM EDTA, pH 7.4); IP antibody on protein G Sepharose, 500 ug protein extract, 1 h; western blot; cells with or without dexamethasone and/or SP-D; each protein in turn as bait

Substance: Zonula occludens-1 (from UniProt A0A0G2K2P5 1-1765)
- binding: binds
